Source: PubChem BioAssay AID504764 (Drosophila RNAi Screening Center, 2011)

Screen: 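Knock-downs that raise or lower a Notch target reporter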 (primary screen)
Cell system: Drosophila Kc167 cells
Knock-down reagent: long dsRNA against Drosophila genes
Duration: about 5 days (4 days dsRNA, then 24 h after transfection)
Treatment: transfection of constitutively active membrane-tethered Notch lacking the extracellular domain, read 24 h later
Measured: 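Light from a Notch-responsive E(spl)m3 luciferase reporter under active Notch, with control-promoter and no-Notch reporter wells to normalise; raw counts from paired wells a and b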
Scale: induced reporter light, run 1, well a and induced reporter light, run 1, well b: higher = more light from the Notch target reporter with active Notch; control promoter light, run 1, well a and control promoter light, run 1, well b: higher = more light from the viral control promoter (cell number, transfection, viability); uninduced reporter light, run 1, well a: higher = more light from the Notch target reporter without active Notch
Hit rule: 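Wells with low control signal or poorly matching duplicates excluded; duplicates averaged; per source plate, z beyond ±2 for induced/control log2 ratio or beyond ±1.8 for induced/uninduced marks a hit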
Calls: active = modifier hit (raised or lowered Notch signal); inactive = not a hit
In all, the deposit lists about 22,000 reagents; this is a random part of those with a known target gene and a result. In the full data, 403 (1.9%) were called active. 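Unnormalised raw counts per well; ratio z-scores behind the hit calls and whether each hit raises or lowers signal are not deposited.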 Names joined by + are all predicted targets of the reagent. No sequences are given here. Not given: the amount of reagent.

Gene | PubChem SID | induced reporter light, run 1, well a | induced reporter light, run 1, well b | control promoter light, run 1, well a | control promoter light, run 1, well b | uninduced reporter light, run 1, well a | Outcome
ova | SID104182671 | 2.00e5 | 2.13e5 | 1.49e5 | 1.72e5 | 16810 | inactive
Rbpn-5 | SID104184232 | 1.92e5 | 1.85e5 | 2.15e5 | 2.26e5 | 17230 | inactive
stum | SID104184060 | 47965 | 54405 | 46455 | 46280 | 1892 | inactive
stum | SID104184062 | 50995 | 52040 | 52270 | 42720 | 3735 | inactive
CG17283 | SID104195011 | 1.80e5 | 1.97e5 | 1.69e5 | 1.80e5 | 14005 | inactive
Lcp65Ag3 + Lcp65Ag2 + Lcp65Ag1 | SID104191006 | 1.35e5 | 1.27e5 | 1.51e5 | 1.92e5 | 8165 | inactive
Lcp65Ag3 + Lcp65Ag2 + Lcp65Ag1 | SID104191007 | 1.50e5 | 1.81e5 | 2.68e5 | 1.41e5 | 7130 | inactive
CG31686 (retired record) | SID104179894 | 1.13e5 | 88895 | 1.19e5 | 1.29e5 | 7480 | inactive
yellow-h | SID104196933 | 97825 | 1.18e5 | 2.42e5 | 1.97e5 | 8220 | inactive
CG10163 | SID104189502 | 2.62e5 | 1.65e5 | 2.22e5 | 2.15e5 | 11520 | inactive
Fife | SID104188054 | 58735 | 52125 | 91480 | 74685 | 8050 | inactive
ry | SID104196840 | 1.28e5 | 1.24e5 | 87275 | 74540 | 7338 | inactive
scyl | SID104191184 | 1.52e5 | 1.34e5 | 2.07e5 | 2.30e5 | 9500 | inactive
mRF1 | SID104182672 | 2.01e5 | 2.47e5 | 2.03e5 | 1.86e5 | 16415 | inactive
WRNexo | SID104196070 | 1.40e5 | 1.66e5 | 1.95e5 | 1.83e5 | 11640 | inactive
Ntf-2 | SID104200344 | 1.28e5 | 1.28e5 | 1.03e5 | 46930 | 9710 | inactive
CG11162 | SID104199183 | 68920 | 79985 | 87955 | 77190 | 5042 | inactive
Datp | SID104180894 | 1.03e5 | 1.24e5 | 1.40e5 | 1.33e5 | 8400 | inactive
beta'COP | SID104183284 | 13965 | 14130 | 18195 | 22915 | 1135 | inactive

Records above whose target name starts with S or s (3):
Gene | PubChem SID | induced reporter light, run 1, well a | induced reporter light, run 1, well b | control promoter light, run 1, well a | control promoter light, run 1, well b | uninduced reporter light, run 1, well a | Outcome
stum | SID104184060 | 47965 | 54405 | 46455 | 46280 | 1892 | inactive
stum | SID104184062 | 50995 | 52040 | 52270 | 42720 | 3735 | inactive
scyl | SID104191184 | 1.52e5 | 1.34e5 | 2.07e5 | 2.30e5 | 9500 | inactive

The results go on:
Gene | PubChem SID | induced reporter light, run 1, well a | induced reporter light, run 1, well b | control promoter light, run 1, well a | control promoter light, run 1, well b | uninduced reporter light, run 1, well a | Outcome
p38a | SID104196535 | 1.97e5 | 1.59e5 | 2.20e5 | 2.32e5 | 13182 | inactive
side-VII | SID104194370 | 1.50e5 | 1.49e5 | 81000 | 76635 | 11665 | inactive
Hap40 | SID104199877 | 1.82e5 | 1.41e5 | 2.24e5 | 1.91e5 | 11970 | inactive
CG9953 | SID104190898 | 2.00e5 | 1.67e5 | 2.03e5 | 1.48e5 | 11595 | inactive
CG32683 | SID104197782 | 74950 | 74305 | 1.28e5 | 1.10e5 | 5195 | inactive
CG32683 | SID104198024 | 1.12e5 | 99925 | 1.47e5 | 1.23e5 | 7610 | inactive
CG32683 | SID104198025 | 92755 | 1.00e5 | 1.21e5 | 1.18e5 | 6405 | inactive
Polr1C | SID104182511 | 1.11e5 | 1.12e5 | 1.17e5 | 1.25e5 | 12060 | inactive
Acsl | SID104187044 | 1.53e5 | 1.66e5 | 1.74e5 | 1.79e5 | 14370 | inactive
ND-B18 | SID104199739 | 1.02e5 | 93890 | 1.29e5 | 1.06e5 | 12995 | inactive
Eip93F | SID104193319 | 72060 | 73910 | 90895 | 70900 | 10675 | inactive
Eip93F | SID104196453 | 31970 | 37330 | 27850 | 26460 | 4880 | inactive
Muc68E | SID104188938 | 1.89e5 | 1.83e5 | 1.87e5 | 1.85e5 | 13710 | inactive
dod | SID104200369 | 51330 | 79245 | 63960 | 96870 | 8082 | inactive
CG34247 | SID104189725 | 1.92e5 | 1.54e5 | 1.61e5 | 2.51e5 | 8415 | inactive
CG9784 | SID104200002 | 1.02e5 | 84005 | 82545 | 93800 | 11990 | inactive
CG8839 | SID104187077 | 1.38e5 | 1.37e5 | 1.45e5 | 1.12e5 | 11805 | inactive
CG9098 | SID104182928 | 1.72e5 | 1.81e5 | 1.74e5 | 1.84e5 | 15140 | inactive
CG34235 + CG30058 + CG34312 | SID104201693 | – | – | – | – | – | inactive
Lsp1gamma | SID104188464 | 92370 | 90735 | 1.22e5 | 1.90e5 | 8830 | inactive
CG34302 | SID104192543 | 1.51e5 | 1.44e5 | 1.61e5 | 1.42e5 | 11895 | inactive
bab2 | SID104187942 | 95990 | 98010 | 1.48e5 | 1.89e5 | 8750 | inactive
bab2 | SID104188172 | 26115 | 19592 | 36180 | 41935 | 3710 | inactive
mRpL13 | SID104181868 | 55945 | 33875 | 41215 | 35285 | 3660 | inactive
Sec13 | SID104193936 | 1.18e5 | 1.37e5 | 1.69e5 | 1.93e5 | 8655 | inactive
ldbr | SID104190725 | 98775 | 83310 | 53135 | 29065 | 8475 | inactive
CG11164 | SID104199184 | 58045 | 57605 | 45755 | 52605 | 4410 | active
CG10029 | SID104192290 | 1.03e5 | 1.00e5 | 1.11e5 | 1.08e5 | 5665 | inactive
CG6674 | SID104190484 | 2.00e5 | 1.57e5 | 1.50e5 | 86065 | 16495 | inactive
BBS5 | SID104191960 | 1.21e5 | 1.08e5 | 1.00e5 | 1.15e5 | 8935 | inactive
CG9406 | SID104184344 | 20195 | 42785 | 56090 | 52415 | 3342 | inactive
